Measurements reported in article PMC10570388.
These are yes or no findings as the source states them, for the method shown. For part of these data: Binding calls can cover weak binding; strength is not graded here.

What was measured:
Experiment in all cases: two-hybrid; One-to-one Matchmaker Gold Y2H in Y2HGold cells: pGBKT7-bait and pGADT7-prey; growth and blue colour on QDO/X/A against DDO, 3–5 days at 30 °C
[1] = molecular target: PoxRsrA_(1128-1440) (Penicillium oxalicum)
[2] = molecular target: PoxRsrA_(1434–1730)^W1509A (Penicillium oxalicum)
[3] = molecular target: PoxRsrA_(1434–1730)^D1508A (Penicillium oxalicum)
[4] = molecular target: PoxRsrA_(1434–1730)^M1510A (Penicillium oxalicum)
[5] = molecular target: PoxRsrA_(1128-1730) (Penicillium oxalicum)

Binder	binding [1]	binding [2]	binding [3]	binding [4]	binding [5]
Med8 (POX_b02367) (protein, UniProt S8B7D0 1-260) MAPLTSEDYKVLEQARQRLVQLTRSLGSLVSSLEQGDPLPPWSSIQAQANIISNNLISVTEHLSDHRDLLTSIVAYPGPEYPGRTQENMLQQLLRTKLDPRVDDWVARGRAIGTAPNTSSVTHAASSGTIPNPSEVATTNTKQLTDAELTELWQWAPIEANQEARQRNWGGNYTLEEREAGIQNVVTGLRKPLEDDDGSDDEDEDEGEDDEGEDEMEVVGVHRKPSGGVEYDIAPHHAHPVTPVVPLDKILRYMTTGHMP	no binding	binds	no binding	no binding	binds
Med16 (POX_d05606) (protein, UniProt S7ZNH3 1-950) MPLIMDEGINVDDLFGEAHSLDLGLPPAASLPATKGLAQCLDEMRLLGCRQRIAWSRLGAIAYISADGVRVCVRNLQSGLSDGKWGLSDECSLAPVTEAHNGNQLVHLSWSDAGSDLAVVDCMGRISIYSIFMALNNITGLRQASYDSGDDSNQIVGLMWLNPGRQVQAYQQAAKLNNRWAYSPFRWRPTHPSHPAGKSSLITVTRAGQIRLMYQNINGKWAEVPAELKNTGYSDRLLTHAAMVATQGTILLATYSVCQKLCLYRVEIAWTPNKWDPTVMRSPNKWPVPALRLLHYKIDMPSSIWSINHDSEAQMAQSVPFPNSVYSLTRLEMIPGQVDSPTGPTTTSPWILGVFSKPLHASSEFPLQQGPASVIVRWQLDSTQQSLHPKFDEVVSRKTHTQIKPKIEMRRLEDIHLNKYIVSVDLMEHVTAPALALTHSDGSIAFYETKTMTLFNGLDDASTVNCFAQAGFQFPIDAPGLSIAFSPNSCAAVVLDSGSQPRLRWMEHNFGSSGGLYDEGKFSAAIAALTLAFSRGSGSDSNTDDIMMVVLGQLSLENQPTFLGEVYRALSINCNFTVEPDKIMTHTYIPRALSLQTSLGFRGRNRPRTMPSAMSWTVLQLRHSSLLFATYFQHCNNFPAEQSDSGILHALLGNTRWALSMSQFILNEILDLADDFESVLHDSEAFSQKLKTTTSLPLLISLSSMSRAFMRIICRGLRGVRNGFENVNTAAIDAESRSCWVEICRAIETSPIRVDLYEKFLAGVDSAVKHAYQGSGFGDAERPSPEKELLVNARIPPVLVPAVETLFTQTVPSIRSEINRKEIVMGDYSWLGLDNDPGTATYRKRHDIDILMKVPLRPVTGRQDLAVAPMARRRRCVRCGEISGDAGRPRTNAWTKMMLRLHALKMCPCGGAWVMETPDSVSPEGVSSSGGLGGSGPVNVSKAVEVAGSG	no binding	binds	binds	no binding	binds
Med6 (POX_c04649) (protein, UniProt S8AK07 1-340) MASQSAPMEEIIWRSPQHVQMMGGYLHSNNILFYFAESPFFDPQSNNGTLATQATYNESLRHVVETRATFEGKLKQMQGLEFLVSFDPLEAAARSNPNRFDFEPNNIWVIRKQERRKRSGMEDEVTVLATYFVVGDTVYMAPSVASIVGNRILTAVTSISRLMKTASTLPIFTPSTGHTYLPPTARTTESGQQPSQPSKENTPMPDAPQPSVAETQISGKASLGVSTGSSSYQDIRNLAEAFRLFNQYGDEFMDEHPLTGEPGSFILSRAGETDRPAGAAAKVASKASLGTGVNTPAGIRARSTTPQVRIDTPGKLSDKGNTPPSSVENKLKKKKGRVVS	binds	–	–	–	binds
